Measured values taken from patent US20020115678A1, “Compounds, compositions and methods for treating antibiotic-resistant infections” (priority 1996, published 2002).
At least one compound was matched to its structure with a doubt left.

Tested on: Staphylococcus aureus methicillin-resistant wild type T67738
Experiment: Susceptibility test (MIC, microtiter serial dilution), methicillin-resistant S. aureus
Format: cell-based
Conditions: MIC by serial dilution in Mueller-Hinton broth
Experimental: The strains were streaked on blood agar plates (trypticase soy broth containing 5% sheep cells). A single colony was isolated and grown in Mueller-Hinton Broth (MHB) as recommended by the national Committee for Clinical Laboratory Standards for rapidly growing bacteria. Candida species and related fungi were isolated in a similar manner on brain-heart infusion agar (BHI).
The antibiotic susceptibility profile of each strain was determined using standard microtiter dilution plates obtained from the Clinical Microbiology Laboratory at Ohio State University Hospitals. The Inocula were prepared by suspending a 4 hour log phase growth in MHB visually equal in turbidity of an 0.5 McFarland standard. Inocula were further diluted and added to microdilution trays to achieve a final density of approximately 1×10^5 CFU/ml. The trays were incubated for 16 to 20 hours at 35° C. […]
The MIC and minimum bacterial concentration (MBC) of the strains to the active agents were determined by two-fold dilutions in Mueller-Hinton broth. […] The MIC and MBC were determined after 48 hours incubation at 35-37° C. […] After 24 hours incubation, the number of colonies was counted. […] The tubes were incubated at 35° C. in ambient air and read at 24 hours. […]
The MBC was determined as follows: After 48 hours incubation, tubes without visible growth were vortexed. […] After 24 hours, incubation, the number of colonies was counted. […]

## OC(c1cc(-c2ccc(C(F)(F)F)cc2)nc(-c2ccc(C(F)(F)F)cc2)c1)C1CCCCN1 (stereo not shown) [#153141]
  Effective Concentration S. aureous Resist.: 1.5/3.0 μg/ml
